According to patent publication US20200040082A1:

Legend:
[1] = biological target: cynomolgus monkey TIGIT (cynomolgus monkey); assay: flow cytometry on 293-cyno TIGIT cells, 100 nM antibody
[2] = biological target: cynomolgus monkey TIGIT (cynomolgus monkey); assay: flow cytometry on cynomolgus T cells, 20 ug/mL antibody
[3] = biological target: cynomolgus monkey TIGIT (cynomolgus monkey); assay: flow cytometry on cynomolgus T cells
[4] = biological target: cynomolgus monkey TIGIT (cynomolgus monkey); assay: flow cytometry on 293-cyno TIGIT cells

B1: Clone 22 (antibody, V domains shown)
VH: QVQLQESGPGLVKPSETLSLTCAVSGYSISSGYYWAWIRQPPGKGLEWIGSIYHSGSTYYNPSLKSRVTISVDTSKNQFSLKLSSVTAADTAVYYCARQGYYYGSSGSVDFDLWGRGTLVTVSS
VL: DIQMTQSPSSVSASVGDRVTITCRASQGISSWLAWYQQKPGKAPKLLIYAASNLQSGVPSRFSGSGSGTDFTLTISSLQPEDFATYYCQQANSLPPWTFGGGTKVEIK
**Q.** With B1 as the binder, how does the binding [1] read?
**A.** binds

**Q.** What about the binding [2] of the same binder?
**A.** binds

B2: Clone 27 (antibody, V domains shown)
VH: QVQLVQSGAEVKKPGASVKVSCKASGYTFTSYAISWVRQAPGQGLEWMGWISAYNGNTNYAQKLQGRVTMTTDTSTSTAYMELRSLRSDDTAVYYCARDLSSFWSGDVLGAFDIWGQGTMVTVSS
VL: EIVMTQSPATLSVSPGERATLSCRASQSVSSNLAWYQQKPGQAPRLLIYGASTRATGIPARFSGSGSGTEFTLTISSLQSEDFAVYYCQQHANHITFGGGTKVEIK
**Q.** Which binding [1] does the source give for B2 here?
**A.** binds

**Q.** What about the binding [2] of the same binder?
**A.** binds

B3: Clone 18 (antibody, V domains shown)
VH: QVQLVQSGAEVKKPGASVKVSCKASGYTFTSYYMSWVRQAPGQGLEWMGIINPSGGSTSYAQKFQGRVTMTRDTSTSTVYMELSSLRSEDTAVYYCARVRYGYADGMDVWGQGTTVTVSS
VL: DIQMTQSPSSLSASVGDRVTITCRASQSISSYLNWYQQKPGKAPKLLIYGASSLQSGVPSRFSGSGSGTDFTLTISSLQPEDFATYYCQQVYHLPFTFGGGTKVEIK
**Q.** With B3 as the binder, how does the binding [3] read?
**A.** no binding (tested: 20 ug/mL)

**Q.** And the binding [4]?
**A.** no binding (tested: 100 nM)

These are yes or no findings as the source states them, for the method shown. For part of these data: A result given as binding can be weak or reduced; the word gives no strength.
